Two compounds from PMC7252619 (PLoS ONE, 2020) can be followed below.

The subject of test [1] is human PBMCs (responder cells) with RPMI1788 stimulator cells. As to the kind of experiment: Mixed Lymphocyte Reaction (MLR, T cell assay), 3H-thymidine incorporation. It is filed as cell-based. Conditions: for IC50: Homo sapiens, RPMI-1788, mean of 4 independent measures, read-out: T-cell efficacy, MLR IC 50 (µM) Mean; for Selectivity Index (SI) MLR/B-cell: ratio of IC50 values.

For a further test, the system named is human CD19+ B cells. As to the kind of experiment: B-cell assay: IgG production of ODN2006-stimulated primary B cells (AlphaLISA). The test is classed as cell-based. Conditions: 168 h, ODN2006 0.1 μM, 7 days, mean of 4 independent experiments.

For the compound `CN1CCN(CCCN2c3ccccc3Sc3ccc(Cl)cc32)CC1` [Prochlorperazine, reference compound], the IC50 turned out to be 4.73 µM in test [1] and 6120 nM in the test on human CD19+ B cells. For the same compound, the “Selectivity Index (SI) MLR/B-cell” value in test [1] came out at 0.77.

Take `C[C@@H]1CCN(C(=O)CC#N)C[C@@H]1N(C)c1ncnc2[nH]ccc12` [Tofacitinib]: the IC50 amounted to 0.264 µM in test [1] and 432 nM with human CD19+ B cells. Besides, the “Selectivity Index (SI) MLR/B-cell” value in test [1] is given as 0.61.
